These results are taken from US20190337880.

The exact form of at least one protein or probe is not confirmed. Where cells or extracts were used, other partners may take part. Tags and fusion partners may be left off the protein sequences shown.

The target in the series is T1, SOX18 cMyc-tagged (Mus musculus) (UniProt P43680).
T1 sequence (looked up, limits assumed): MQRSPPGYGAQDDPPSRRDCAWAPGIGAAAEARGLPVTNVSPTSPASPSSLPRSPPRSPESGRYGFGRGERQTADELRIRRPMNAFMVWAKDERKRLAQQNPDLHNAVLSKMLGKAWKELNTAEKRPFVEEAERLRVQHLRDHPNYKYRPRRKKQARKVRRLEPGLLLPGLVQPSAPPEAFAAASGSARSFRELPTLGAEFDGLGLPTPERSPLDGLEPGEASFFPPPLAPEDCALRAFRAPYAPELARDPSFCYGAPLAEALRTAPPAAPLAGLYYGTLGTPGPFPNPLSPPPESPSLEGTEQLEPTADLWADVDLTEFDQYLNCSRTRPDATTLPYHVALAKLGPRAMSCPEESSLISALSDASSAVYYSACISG
In words: binding assay. As to conditions: ChIP-seq motif enrichment in HUVEC; protein in cells; protein details: cMyc (pSG5 cMyc-Sox18), expressed in HUVEC.

“AACAAT (double strand) [SOX18 ChIP-seq top motif]”: the binding result is recorded as “binds”.
